test system: olfactory system; test: WUTC Odor Threshold Test (yes-no detection of odorant dilutions in water, signal detection analysis); assay type: in vivo, human; settings: combined trials of all 33 subjects
From the text: The present study involved the creation and study of a new test of olfactory ability, deemed the Wheeler University of Tennessee, Chattanooga (WUTC) Odor Threshold Test. This test was developed building upon the methodology behind signal detection theory as it allowed for multiple measures of olfactory ability to be calculated from a single test. These measures are sensitivity, response-bias, and threshold. Unlike currently available threshold tests, the WUTC Odor Threshold Test utilizes a randomized, multiple odor administration along with the presentation of blank concentrations.
A total of thirty three participants (N=33), collected from the UTC campus, were administered the WUTC threshold test.
To make the test, odorant molecules were first dissolved in a purified H2O solvent following their individual levels of solubility to create standard solutions. These standards were the highest concentration for each odorant and the base from which all successive dilutions were made. Liquid odorants ethanol, pinene, and isoamyl acetate were diluted by volume whereas para-cresol and vanillin were diluted by mass. Each standard was rounded to the nearest μL. A total of nine concentrations were made from each standard solution and diluted at a ratio of 1:2. The highest concentration for each odor as well as concentration ranges were chosen based on literature threshold values and a small, preliminary testing period. Solutions (10 mL) of each odorant were diluted and contained in sterilized and dried glass vials with black, screw-top lids (see FIG. 12).
Blanks were made using 10 mL of the same purified H2O used as a solvent for the other odorants. The final test contained 45 vials with odorant concentrations and nine blanks for a total of 54 vials. Tests were remade after either one month or ten administrations had been reached to avoid any amount of loss of odor strength that could result from extended shelf time or exposure to air during administrations. Before reproducing the test, vials underwent sterilization and drying procedures.
Each subject was instructed to complete the provided demographic form (see below). […] Each participant was then seated in a cushioned, high backed chair facing away from a table where each testing vial was placed. In a brief tutorial to the test, subjects were instructed that they would be presented with a number of vials, some containing odors and some not, one at a time. Subjects were then told that they would only be required to smell the contents of the vial and verbally give a “yes” or “no” answer as to whether they detected anything. […] Once the subject felt comfortable with the instructions presented in this tutorial, the actual test was started.
Following a randomly generated number sequence for each subject, a seated test administrator would select the correspondingly numbered test vial for each trial, place it in tongs, and hand it to a second administrator that, like the participant, was facing away from the administration table. […] The “yes” or “no” response given by the subject was recorded by the first administrator and the vial and tongs were returned to him/her by the second administrator. This procedure was repeated for each of the odorant tubes in the test with each tube presented to the participant twice.

With `CC(=O)OCCC(C)C` [Isoamyl Acetate, isoamyl acetate] as the compound, how does the “Mean response-bias C” value read?
The value was 0.31.

Which “Mean response-bias C” value does the source give for `COc1cc(C=O)ccc1O` [Vanillin, vanillin] here?
Its value is 0.381.

How did the “Mean response-bias C” value turn out when `Cc1ccc(O)cc1` [para-cresol] was run?
The value was 0.217.

For `CC1=CCC2CC1C2(C)C` [Pinene, L-α-pinene], which “Mean response-bias C” value is on record?
The value was 0.194.

For `CCO` [Ethanol, ethanol], which “Mean response-bias C” value is on record?
Its value is 0.198.

From patent publication US20150177202A1, “ODOR THRESHOLD TEST” (University of Tennessee Research Foundation, priority 2013, published 2015)
